The source of these data is the supplement of paper PMC11348887.

Holding throughout (conditions): 5 µM; treatment: days 7-14 after plating, readout day 21
For assay [1], the system named is hPSC-derived cortical neurons (WA09). In words: nucleus area z-score vs screen plate; higher = larger nuclei (more mature).
Assay [2] has the same test system. In words: total neurite length per nucleus (MAP2) z-score; higher = more neurite growth.
Assay [3] shares this test system. Briefly: nucleus roundness z-score vs screen plate; higher = rounder nuclei (more mature).
For assay [4] the test system is unchanged. Briefly: KCl-induced FOS+/EGR-1+ double-positive nuclei fraction z-score (KCl minus unstimulated); higher = stronger activity-induced IEG response.

Counter-ions that a name gives are not always drawn. Some of the results follow. Most values lie at the level of the controls, where differences are scatter.

`O=c1cc[nH]c(=S)[nH]1` [2-Thiouracil]: in assay [1], the nucleus area z-score is 1.21. In addition, the “total neurite length per nucleus (z-score)” value in assay [2] worked out at 0.492. In assay [3], this compound showed a nucleus roundness z-score of 0.114. For the same compound, the “KCl-induced FOS+/EGR-1+ double-positive nuclei fraction z-score” value in assay [4] amounted to 1.27.

Consider `COc1cc(Nc2ncc(F)c(Nc3ccc4c(n3)NC(=O)C(C)(C)O4)n2)cc(OC)c1OC`, for which, in assay [1], the nucleus area z-score is -0.0298. The “total neurite length per nucleus (z-score)” value in assay [2] is 0.607. The compound further yielded a nucleus roundness z-score in assay [3] of 0.262. Further, the “KCl-induced FOS+/EGR-1+ double-positive nuclei fraction z-score” value in assay [4] turned out to be 0.172.

Consider `CC1(C)[C@H](C(=O)O)N2C(=O)C[C@H]2S1(=O)=O` [Sulbactam sodium], for which the nucleus area z-score in assay [1] was 0.393. Also, the “total neurite length per nucleus (z-score)” value in assay [2] was 0.281. The nucleus roundness z-score in assay [3] amounted to 0.685. In addition, the “KCl-induced FOS+/EGR-1+ double-positive nuclei fraction z-score” value in assay [4] was found to be 0.271.

Turning to `N[C@@H]1CCCN(c2c(/C=C3\SC(=O)NC3=O)cccc2-c2ccccc2)C1`, in assay [1], the nucleus area z-score is 0.0386. Further, the “total neurite length per nucleus (z-score)” value in assay [2] came to 0.175. Also, the nucleus roundness z-score in assay [3] came to 0.508. Further, the “KCl-induced FOS+/EGR-1+ double-positive nuclei fraction z-score” value in assay [4] amounted to 0.0798.

`CC1(C)C=C(CN2C/C(=C\c3ccc(F)cc3)C(=O)/C(=C/c3ccc(F)cc3)C2)C(C)(C)N1O` returned a nucleus area z-score in assay [1] of -0.0492. Further, the “total neurite length per nucleus (z-score)” value in assay [2] is -0.364. In assay [3], this compound had a nucleus roundness z-score of 0.208. Also, the “KCl-induced FOS+/EGR-1+ double-positive nuclei fraction z-score” value in assay [4] is -0.531.

With `Cc1ccc(S(=O)(=O)OCC(=O)Nc2ccc(C(=O)O)c(O)c2)cc1`, in assay [1], the nucleus area z-score was found to be 0.175. Moreover, the “total neurite length per nucleus (z-score)” value in assay [2] was determined as 0.186. Also, the nucleus roundness z-score in assay [3] is -0.235. Moreover, the “KCl-induced FOS+/EGR-1+ double-positive nuclei fraction z-score” value in assay [4] turned out to be 0.168.

Compound `CCC1(c2ccccc2)C(=O)NCNC1=O` [Primidone] came in with a nucleus area z-score in assay [1] of -0.537. Besides, in assay [2], the “total neurite length per nucleus (z-score)” value turned out to be 0.867. The same compound showed a nucleus roundness z-score in assay [3] of 0.219. The “KCl-induced FOS+/EGR-1+ double-positive nuclei fraction z-score” value in assay [4] stood at 0.57.

The compound `CCN1CCC[C@H]1CNC(=O)c1cc(S(N)(=O)=O)ccc1OC` [Levosulpiride] registered a nucleus area z-score in assay [1] of 0.415. Moreover, the “total neurite length per nucleus (z-score)” value in assay [2] was 1.28. The compound also had a nucleus roundness z-score in assay [3] of 1.16. For the same compound, the “KCl-induced FOS+/EGR-1+ double-positive nuclei fraction z-score” value in assay [4] was 1.45.

On to `O=C(NOCC1CC1)c1ccc(F)c(F)c1Nc1ccc(I)cc1Cl`, for which the nucleus area z-score in assay [1] is 1.59. Moreover, in assay [2], the “total neurite length per nucleus (z-score)” value was found to be 1.25. This compound also yielded a nucleus roundness z-score in assay [3] of 0.662. Besides, the “KCl-induced FOS+/EGR-1+ double-positive nuclei fraction z-score” value in assay [4] came to 1.47.

`Cc1cn([C@H]2C[C@H](N=[N+]=[N-])[C@@H](CO)O2)c(=O)[nH]c1=O` [Zidovudine]: the nucleus area z-score in assay [1] turned out to be 0.548. The “total neurite length per nucleus (z-score)” value in assay [2] was 0.662. For the same compound, the nucleus roundness z-score in assay [3] came out at 0.507. The “KCl-induced FOS+/EGR-1+ double-positive nuclei fraction z-score” value in assay [4] is -0.596.

`NC1(c2ccc(-c3nc4ccn5c(=O)[nH]nc5c4cc3-c3ccccc3)cc2)CCC1`: the nucleus area z-score in assay [1] is -2.16. In addition, the “total neurite length per nucleus (z-score)” value in assay [2] was -1.08. Besides, in assay [3], the nucleus roundness z-score is -1.07. The “KCl-induced FOS+/EGR-1+ double-positive nuclei fraction z-score” value in assay [4] is -0.197.

`OC[C@H]1O[C@H](O[C@]2(CCl)O[C@H](CCl)[C@@H](O)[C@@H]2O)[C@H](O)[C@@H](O)[C@H]1Cl` [Sucralose] showed a nucleus area z-score in assay [1] of -0.16. In assay [2], the “total neurite length per nucleus (z-score)” value came out at 0.188. For the same compound, in assay [3], the nucleus roundness z-score stood at 0.0641. The “KCl-induced FOS+/EGR-1+ double-positive nuclei fraction z-score” value in assay [4] was 0.00185.

The compound `COc1cc(CCC(C)=O)ccc1O` [Vanillylacetone] registered a nucleus area z-score in assay [1] of 1.34. In addition, the “total neurite length per nucleus (z-score)” value in assay [2] was -1.24. For the same compound, the nucleus roundness z-score in assay [3] is -0.726. Also, in assay [4], the “KCl-induced FOS+/EGR-1+ double-positive nuclei fraction z-score” value came to 0.285.

Compound `Nc1nc2n[nH]nc2c(=O)[nH]1` [Azaguanine-8] came in with a nucleus area z-score in assay [1] of -1.62. Besides, in assay [2], the “total neurite length per nucleus (z-score)” value was -0.853. The nucleus roundness z-score in assay [3] was -0.851. The “KCl-induced FOS+/EGR-1+ double-positive nuclei fraction z-score” value in assay [4] worked out at 0.104.

With `Cc1ccc([C@@H]2O[C@H](CO)[C@@H](O)[C@H](O)[C@H]2O)cc1Cc1ccc(-c2ccc(F)cc2)s1` [Canagliflozin], the nucleus area z-score in assay [1] was found to be 2.23. Also, the “total neurite length per nucleus (z-score)” value in assay [2] is 0.755. Further, the nucleus roundness z-score in assay [3] was 0.613. In addition, the “KCl-induced FOS+/EGR-1+ double-positive nuclei fraction z-score” value in assay [4] was -0.346.

Turning to `CC(=O)NS(=O)(=O)c1ccc(N)cc1` [Sulfacetamide Sodium], the nucleus area z-score in assay [1] stood at 1.45. The “total neurite length per nucleus (z-score)” value in assay [2] is -0.095. Besides, the nucleus roundness z-score in assay [3] is 0.316. For the same compound, the “KCl-induced FOS+/EGR-1+ double-positive nuclei fraction z-score” value in assay [4] stood at 0.726.

In turn, `NCCc1c[nH]cn1` [Histamine Phosphate] had a nucleus area z-score in assay [1] of -1.64. Besides, the “total neurite length per nucleus (z-score)” value in assay [2] was determined as 1.47. In addition, in assay [3], the nucleus roundness z-score is -0.968. Also, the “KCl-induced FOS+/EGR-1+ double-positive nuclei fraction z-score” value in assay [4] is 1.6.

Take `OC[C@@H](O)CN1CCN(c2ccccc2)CC1` [Levodropropizine]: in assay [1], the nucleus area z-score turned out to be 0.554. Besides, the “total neurite length per nucleus (z-score)” value in assay [2] came out at 0.667. In assay [3], this compound displayed a nucleus roundness z-score of -0.355. Further, in assay [4], the “KCl-induced FOS+/EGR-1+ double-positive nuclei fraction z-score” value came out at 1.77.

In assay [1], `O=C(NC[C@H]1CN(c2ccc(N3CCOCC3=O)cc2)C(=O)O1)c1ccc(Cl)s1` [Rivaroxaban] had a nucleus area z-score of 0.205. Besides, the “total neurite length per nucleus (z-score)” value in assay [2] stood at 1.35. The nucleus roundness z-score in assay [3] was 1.1. In assay [4], the “KCl-induced FOS+/EGR-1+ double-positive nuclei fraction z-score” value stood at 0.532.

Consider `O=C(O)c1cc(/N=N/c2ccc(S(=O)(=O)Nc3ccccn3)cc2)ccc1O` [Sulfasalazine], for which the nucleus area z-score in assay [1] is -0.835. The “total neurite length per nucleus (z-score)” value in assay [2] came out at 0.245. This compound came in with a nucleus roundness z-score in assay [3] of -0.557. In addition, in assay [4], the “KCl-induced FOS+/EGR-1+ double-positive nuclei fraction z-score” value is -0.726.

`C/C=C(/C)C(=O)O[C@H]1[C@H](OC(C)=O)[C@@]2(CO)C(CC1(C)C)C1=CCC3[C@@]4(C)CCC(O[C@@H]5O[C@H](C(=O)O)[C@@H](O[C@@H]6O[C@H](CO)[C@@H](O)[C@H](O)[C@H]6O)[C@H](O)[C@H]5O[C@@H]5O[C@H](CO)[C@@H](O)[C@H](O)[C@H]5O)[C@](C)(CO)C4CC[C@@]3(C)[C@]1(C)C[C@H]2O.C/C=C(\C)C(=O)O[C@H]1[C@H](OC(C)=O)[C@@]2(CO)C(CC1(C)C)C1=CCC3[C@@]4(C)CCC(O[C@@H]5O[C@H](C(=O)O)[C@@H](O[C@@H]6O[C@H](CO)[C@@H](O)[C@H](O)[C@H]6O)[C@H](O)[C@H]5O[C@@H]5O[C@H](CO)[C@@H](O)[C@H](O)[C@H]5O)[C@](C)(CO)C4CC[C@@]3(C)[C@]1(C)C[C@H]2O` (stereo partly drawn) [Escin] returned a nucleus area z-score in assay [1] of -0.21. The “total neurite length per nucleus (z-score)” value in assay [2] is -0.319. This compound also returned a nucleus roundness z-score in assay [3] of -0.228. For the same compound, in assay [4], the “KCl-induced FOS+/EGR-1+ double-positive nuclei fraction z-score” value is 0.478.

In turn, `CC(C)NC[C@@H](O)COc1ccc(CC(N)=O)cc1` [(R)-(+)-Atenolol HCl] registered a nucleus area z-score in assay [1] of -0.655. Moreover, in assay [2], the “total neurite length per nucleus (z-score)” value was 0.653. In assay [3], this compound registered a nucleus roundness z-score of 0.0773. Besides, the “KCl-induced FOS+/EGR-1+ double-positive nuclei fraction z-score” value in assay [4] stood at 0.661.

`O=C1OCCN1/N=C/c1ccc([N+](=O)[O-])o1` [Furazolidone]: the nucleus area z-score in assay [1] was -0.328. Further, in assay [2], the “total neurite length per nucleus (z-score)” value is -1.74. In addition, in assay [3], the nucleus roundness z-score is -0.776. In addition, the “KCl-induced FOS+/EGR-1+ double-positive nuclei fraction z-score” value in assay [4] is -0.0409.

In turn, `Cc1cc(N2CCN([C@@H]3CN[C@H](C(=O)N4CCSC4)C3)CC2)n(-c2ccccc2)n1` [Teneligliptin hydrobromide] had a nucleus area z-score in assay [1] of 0.209. For the same compound, in assay [2], the “total neurite length per nucleus (z-score)” value came to 0.682. Besides, the nucleus roundness z-score in assay [3] was 0.392. Moreover, the “KCl-induced FOS+/EGR-1+ double-positive nuclei fraction z-score” value in assay [4] is -0.124.

Consider `CN(C)CCC(c1ccccc1)c1ccccn1` (stereo not drawn) [Pheniramine Maleate], for which the nucleus area z-score in assay [1] is -0.06. For the same compound, the “total neurite length per nucleus (z-score)” value in assay [2] came to 0.198. For the same compound, the nucleus roundness z-score in assay [3] amounted to 0.338. Also, the “KCl-induced FOS+/EGR-1+ double-positive nuclei fraction z-score” value in assay [4] was -0.254.

In assay [1], `Cc1c(-c2ccc(O)cc2)n(Cc2ccc(OCCN3CCCCCC3)cc2)c2ccc(O)cc12` [Bazedoxifene HCl] had a nucleus area z-score of -7.52. In addition, in assay [2], the “total neurite length per nucleus (z-score)” value was -3.06. The compound further displayed a nucleus roundness z-score in assay [3] of -3.83. In addition, in assay [4], the “KCl-induced FOS+/EGR-1+ double-positive nuclei fraction z-score” value was -2.19.

Compound `N#CC(c1ccc(Cl)cc1)c1c(Cl)cc(-n2ncc(=O)[nH]c2=O)cc1Cl` (stereo not drawn) [Diclazuril] came in with a nucleus area z-score in assay [1] of -0.428. Besides, the “total neurite length per nucleus (z-score)” value in assay [2] amounted to 0.193. Also, the nucleus roundness z-score in assay [3] was 1.44. The “KCl-induced FOS+/EGR-1+ double-positive nuclei fraction z-score” value in assay [4] amounted to 0.181.
